The source of these data is patent US7964180B2, “Method for enhancing effects of colorants and conditioners” (E. I. du Pont de Nemours and Company, priority 2005, dated 2011).

The data set can be described thus: Spectrophotometric color retention (Delta E, CIELAB) of dyed hair after shampoo treatment, peptide as sealant. Further details: species or system human. As to conditions: Red Dye No. 33 0.07 wt %, one shampoo treatment, larger = better color retention.

On to “IPWWNIRAPLNA (Hair-binding Peptide) [A09]”, for which the “Delta E” value was found to be 25.6 (peptide conc. 0.25 wt %) and 34.8 (peptide conc. 0.95 wt %).

Turning to “TPPELLHGDPRSC (Hair-binding peptide haveing a cysteine residue added to the C-terminus) [IB5-Cys]”, the “Delta E” value (peptide conc. 0.25 wt %) was 20.4.

Consider “Random: random peptide used as comparative sealant; sequence not printed in the text (KSKPYPYPPPLPVRPWT; Random Peptide Sequence) [reference compound]”, for which the “Delta E” value (peptide conc. 0.25 wt %) worked out at 10.8.

B1: PNTSQLSTGGGRTNAADHPKCGGGNTSQLSTGGGRTNAADHPKCGGGNTSQLSTGGGRTNAADHPKC (protein)
chain: PNTSQLSTGGGRTNAADHPKCGGGNTSQLSTGGGRTNAADHPKCGGGNTSQLSTGGGRTNAADHPKC
modifications: Multi-Copy Hair-Binding Peptide
As for B1, the “Delta E” value (peptide conc. 0.25 wt %) is 19.8.
